Like-named read-outs stand apart in the source and are kept apart here.
How the values were obtained:
[1] = system: Staphylococcus aureus separated from the patient A; test: antimicrobial susceptibility testing by microscopic observation, areas of the bacteria; assay type: cell-based; settings: 5 h, read-out: concentration at which the proliferation is interrupted (MIC determination result)
Text: (§1) In order to perform the antimicrobial susceptibility testing, antimicrobial agents different from each other are set so as to be respectively contained in the culture fluids in each of the wells in particular concentrations. An order of the culturing is as follows. First, the bacterial suspension is introduced into the culture plate 18. Then, the bacterial suspension is in a state of being mixed with the culture fluid which is included in each of the wells, and the temperature controller 16 is set to a temperature of approximately 35° C. Furthermore, culture is performed by performing incubation such that the temperature of each of the wells in the culture plate 18 reaches the set temperature. Then, in the bacteriological testing instrument 1, while performing the incubation, the bacteria included in each of the wells can be monitored through the microscopic observation optical system. The microscopic observation may be performed for a set period of time from the start of the incubation till the end thereof by continuously monitoring the state of bacterial proliferation. In addition, the monitoring may be performed at the set time after setting appropriate time, and the monitoring result can be compared with the monitoring result when the incubation is started. In addition, similar to the bacteriological testing instrument in the related art, the turbidity of each of the wells may be measured through the turbidity measurement optical system while incubating the culture plate 18. The measured result may be compared with the monitored result of the microscopic observation optical system.
(§2) The processor determines whether the bacteria proliferate or the proliferation is interrupted under the corresponding culture condition, based on the microscopic image to which the above-described necessary treatments are performed. […] More specifically, based on the image after the treatment illustrated in FIGS. 4 to 6, for example, the areas of the bacteria are calculated, and it is determined whether or not the proliferation is performed by creating the graph as illustrated in FIG. 12. […]

[2] = system: Staphylococcus aureus separated from the patient B; test: as above; assay type: cell-based; settings: 5 h, read-out: concentration at which the proliferation is interrupted (MIC determination result)
Text: as §1, §2

| Compound | MIC ([1]; images within 300 minutes from the start of culture (FIG. 18, FIG. 19(a))) [µg/mL] | MIC [1] [µg/mL] | MIC [2] [µg/mL] |
| --- | --- | --- | --- |
| CC1(C)S[C@@H]2[C@H](NC(=O)[C@H](N)c3ccccc3)C(=O)N2[C@H]1C(=O)O [ampicillin] | ≥ 0.25 | – | – |
| CN[C@H](CC(C)C)C(=O)N[C@H]1C(=O)N[C@@H](CC(N)=O)C(=O)N[C@H]2C(=O)N[C@H]3C(=O)N[C@H](C(=O)N[C@H](C(=O)O)c4cc(O)cc(O)c4-c4cc3ccc4O)[C@H](O)c3ccc(c(Cl)c3)Oc3cc2cc(c3O[C@@H]2O[C@H](CO)[C@@H](O)[C@H](O)[C@H]2O[C@H]2C[C@](C)(N)[C@H](O)[C@H](C)O2)Oc2ccc(cc2Cl)[C@H]1O [vancomycin] | – | ≥ 0.5 | ≥ 1 |
